# Experimental data: PubChem BioAssay AID493014 (National Center for Advancing Translational Sciences (NCATS), 2011)
# This is one part of the list. Shown are side measurements of this screen, not its main read-out; they come without a call. Compounds called inactive in the main read-out are mostly missing here. The note in brackets gives the kind of curve behind each potency; many fits are weak.
# Assay: qHTS Assay to Find Inhibitors of Chronic Active B-Cell Receptor Signaling
# Conditions: ABC-DLBCL IkBa-CBG/CBR reporter, luminescence ratio (green luciferase fused to IkBa over red control in TMD8 lymphoma cells), 4 h
# Method in brief: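 Cell line TMD8 (human ABC DLBCL), stably expressing tet-inducible CBG68-IkBa fusion and CBR; IMDM/0.5% FBS; cpd up to 46 uM; dox induction, 4 h, 37C/5% CO2; dual luminescence; green/red ratio; MG132 control.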
# [1] = measured here: CBR red luminescence, cell number
# [2] = measured here: IkBa-CBG green luminescence
smiles,measurement,setting,value
COc1cc(/C=C/c2nc3ccccc3s2)cc(OC)c1O,AC50,[1],"15.8 µM [falling, single point]"
CC(OC(=O)CCOc1ccccc1)C(=O)Nc1ccc(Cl)cn1 (centres undefined),AC50,[1],"14.1 µM [falling, single point]"
CCOC(=O)CC1COCCN1Cc1cn[nH]c1-c1cc(OC)c(OC)c(OC)c1 (centres undefined),AC50,[1],"7.08 µM [rising, partial curve, poor fit]"
N#Cc1ccsc1NC(=O)COC(=O)C1=NNC(=O)CC1,AC50,[1],"18.4 µM [rising, single point]"
COc1ccc(Cn2c(-c3ccc(Br)cc3)c[n+]3ccccc23)cc1,AC50,[1],"2.59 µM [rising, partial curve]"
O=C(NC(=S)NCCc1ccccc1)c1ccccc1,AC50,[1],"35.5 µM [falling, single point]"
CC(C)CCCCCCNC(=S)Nc1ccc(S(=O)(=O)N2CCOCC2)cc1,AC50,[1],"18.4 µM [falling, partial curve, poor fit]"
CCn1cc(C(=O)NCCc2ccc(OC)c(OC)c2)c(=O)c2cc(S(=O)(=O)N3CCOCC3)ccc21,AC50,[1],"17.8 µM [rising, partial curve, poor fit]"
N#C/C(=C\C=C\c1ccccc1)C(=O)N1CCCC1,AC50,[1],"10 µM [falling, partial curve]"
Cc1ccc(-c2cn3cc(C)ccc3n2)cc1,AC50,[1],"7.94 µM [falling, partial curve, poor fit]"
O=S(=O)(c1cccc(NC(=S)N2CCN(c3cccc(Cl)c3)CC2)c1)C(F)F,AC50,[1],"18.4 µM [falling, single point]"
Cc1cccc(-n2nnc(-c3nc(-c4ccccc4)no3)c2N)c1C,AC50,[1],"12.6 µM [falling, single point]"
O=C(CSc1ccccc1)Nc1cccnc1,AC50,[1],"32.6 µM [falling, single point]"
COC(=O)Cc1csc(N)n1,AC50,[1],"0.731 µM [rising, full curve, poor fit]"
CN(C)c1ccc(/C=C/c2ccncc2)cc1,AC50,[1],"0.651 µM [rising, full curve, poor fit]"
CCCCn1c(N)c(N(CC(C)C)C(=O)c2cccc(S(=O)(=O)N3CC(C)OC(C)C3)c2)c(=O)[nH]c1=O (centres undefined),AC50,[1],"7.31 µM [rising, partial curve, poor fit]"
COc1ccc(C2/C=C\CN(S(=O)(=O)c3ccc4ccccc4c3)CC(=O)N2Cc2ccc(F)cc2)cc1 (centres undefined),AC50,[1],"11.2 µM [rising, partial curve, poor fit]"
O=C(C(c1ccccc1)c1ccccc1)N1CC[C@@]2(O)CCCC[C@H]2C1,AC50,[1],"6.31 µM [rising, single point]"
O=C(Nc1cccc(Cl)c1)Nc1cc(S(=O)(=O)N2CCCCC2)ccc1Cl,AC50,[1],"32.6 µM [falling, single point]"
O=C(O)c1cccc(CN2C(=O)S/C(=C/c3cccc([N+](=O)[O-])c3)C2=O)c1,AC50,[1],"5.62 µM [falling, full curve]"
CC(C)NCC1CCc2cc(CO)c([N+](=O)[O-])cc2N1 (centres undefined),AC50,[1],"0.112 µM [falling, full curve, poor fit]"
CCN(Cc1ccncc1)Cc1cn(C)nc1-c1ccc(Oc2ccccc2)cc1,AC50,[1],"0.794 µM [rising, full curve, poor fit]"
COc1cc(C(=O)Nc2scc(-c3ccc(C)cc3)c2C(=O)O)cc(OC)c1OC,AC50,[1],"2.82 µM [falling, full curve]"
same,AC50,[2],"3.16 µM [rising, full curve, poor fit]"
CC(OC(=O)c1cc(=O)[nH]c2ccccc12)C(=O)c1ccccc1 (centres undefined),AC50,[1],"20 µM [rising, single point]"
COC(=O)C1=C(C)N(CCc2ccc(OC)cc2)C(=O)C1,AC50,[1],"8.91 µM [falling, partial curve]"
COc1cc2cc(CN(C(=O)NC3CCCCC3)C3CCCC3)c(=O)[nH]c2cc1OC,AC50,[1],"0.562 µM [rising, partial curve, poor fit]"
COc1cccc(-c2csc(N3CCN(C(=S)Nc4cccc(Cl)c4)CC3)n2)c1,AC50,[1],"6.31 µM [rising, single point]"
O=C(COc1ccc(F)cc1)N1CCc2ccccc2C1,AC50,[1],"8.91 µM [falling, partial curve, poor fit]"
C(=C\c1ccccc1)/CSc1nnc(-c2cccnc2)o1,AC50,[1],"5.62 µM [falling, single point]"
C[C@@H](CN1C(=O)C(=O)NC[C@@H]1Cc1ccc(O)cc1)NC(=O)Cc1ccccc1,AC50,[1],"20 µM [falling, partial curve, poor fit]"
Cc1occc1-c1nnc(SC(C)C(=O)Nc2ccccc2F)o1 (centres undefined),AC50,[1],"10.3 µM [falling, partial curve, poor fit]"
CN(C)CCCN(C(=O)c1cc2ccccc2oc1=O)c1nc2ccc(F)cc2s1,AC50,[1],"16.4 µM [falling, single point]"
CC(/C=N/n1c(-c2n[nH]c3c2CCC3)n[nH]c1=S)=C\c1ccco1,AC50,[1],"0.1 µM [falling, full curve, poor fit]"
Clc1cc(Cl)c2nc(N3CCOCC3)sc2c1,AC50,[1],"23.1 µM [rising, partial curve]"
Cc1ccc2sc(-c3ccc(NC(=O)/C=C\C(=O)O)cc3)nc2c1,AC50,[1],"35.5 µM [falling, single point]"
N/C(=N\OC(=O)c1cccc2ccccc12)c1cccnc1,AC50,[1],"0.2 µM [rising, full curve, poor fit]"
CCCCNC(=O)c1cc(-c2ccc(OC)c(OC)c2)on1,AC50,[1],"1.12 µM [rising, full curve, poor fit]"
COC(=O)c1cc(NC(=S)NC(=O)c2ccccc2)ccc1N1CCOCC1,AC50,[1],"3.16 µM [falling, full curve]"
Cc1ccc2c(c1)[C@H]1[C@H](CO2)[C@H](c2ccccc2)[C@]2(C)C(=O)Nc3ccc(Br)cc3C(=O)N12,AC50,[1],"3.66 µM [falling, full curve]"
COc1cccc(NCc2cc(=O)oc3cc(C)c(C(C)C)cc23)c1,AC50,[2],"31.6 µM [falling, single point]"
Cc1cc(C)nc(/N=C2\NC(=O)CC3C(=O)NCCN23)n1 (centres undefined),AC50,[1],"3.66 µM [rising, full curve, poor fit]"
CC1CCN(c2nc(-c3cccnc3)nc3scc(-c4ccccc4)c23)CC1,AC50,[1],"25.9 µM [rising, single point]"
COc1ccc(CCNc2nc(-c3ccco3)cc(C(F)(F)F)n2)cc1OC,AC50,[1],"11.2 µM [falling, partial curve, poor fit]"
O=C(c1ccccn1)N1CCN(S(=O)(=O)c2ccc3ccccc3c2)CC1,AC50,[1],"31.6 µM [rising, partial curve, poor fit]"
O=C(Nc1ncc(Cc2cccc(Cl)c2)s1)c1cccs1,AC50,[1],"11.2 µM [falling, partial curve, poor fit]"
COc1ccc2c(c1)cc(C(=O)O)n2C,AC50,[1],"23.1 µM [falling, single point]"
CC1=NN(C2=NS(=O)(=O)c3ccccc32)C(C)(O)C1 (centres undefined),AC50,[1],"25.1 µM [rising, partial curve, poor fit]"
COC(=O)/C=c1\sc2n(c1=O)C(C)=CC(C)(C)N=2,AC50,[1],"20.6 µM [falling, single point]"
COc1cc2c(cc1OC)C(Cc1ccc(O)cc1)NCC2 (centres undefined),AC50,[2],"29.1 µM [falling, single point]"
COc1cc(C(=O)Oc2cccc(/C=N/NC(=O)c3cccnc3)c2)cc(OC)c1OC,AC50,[1],"1.78 µM [falling, partial curve, poor fit]"
Clc1ccc(-c2nnc3c4ccccc4nc(N4CCOCC4)n23)cc1Cl,AC50,[1],"12.6 µM [falling, partial curve]"
O=C1OC(c2ccc3c(c2)OCO3)N(C(=O)c2ccc(Cl)c(Cl)c2)c2ccccc21 (centres undefined),AC50,[1],"0.0146 µM [falling, full curve]"
COc1cccc(C(=O)N/N=C(\C)c2cccc(NC(=O)c3ccc(F)cc3)c2)c1OC,AC50,[1],"8.91 µM [falling, partial curve, poor fit]"
CC(C)(C)NC(=O)C(c1c[nH]c2ccccc12)N(C(=O)Cn1nnc(-c2ccc(F)cc2)n1)c1cccc(O)c1 (centres undefined),AC50,[1],"29.1 µM [falling, single point]"
C=C(C)COc1ccc(-c2nc(N)ncc2-c2ccc(Cl)cc2)c(O)c1,AC50,[1],"3.55 µM [rising, single point]"
O=C(O)c1cc(=O)n(Cc2ccccc2)c(=O)[nH]1,AC50,[1],"35.5 µM [falling, partial curve, poor fit]"
CC1=C(C(=O)Nc2ccccn2)C(c2ccc(Br)cc2)NC(=S)N1 (centres undefined),AC50,[1],"1.3 µM [falling, full curve]"
CS(=O)(=O)Nc1ccc(N2CCN(c3ccc(C(F)(F)F)cn3)CC2)nc1,AC50,[1],"7.94 µM [rising, partial curve, poor fit]"
Cc1ccc(NS(=O)(=O)c2cc(C(=O)Nc3cccc([N+](=O)[O-])c3)ccc2C)cc1,AC50,[1],"29.1 µM [falling, single point]"
Cc1sc2ncnc(Sc3ccccc3C(=O)Nc3ccc(Br)cc3)c2c1C,AC50,[1],"16.4 µM [falling, partial curve]"
Cc1[nH]n(C(C)(C)C)c(=O)c1Sc1ccccc1,AC50,[1],"1.26 µM [falling, full curve, poor fit]"
S=C(Nc1cccc(Cl)c1)Nc1cccc2cnccc12,AC50,[1],"29.1 µM [falling, single point]"
NCCCn1c(C(=O)c2cc(Cl)c(N)c(Cl)c2)c2ccc(C(F)(F)F)cc2[n+]1[O-],AC50,[1],"10.3 µM [falling, partial curve]"

# An excerpt from the list above:
smiles,measurement,setting,value
C=C(C)COc1ccc(-c2nc(N)ncc2-c2ccc(Cl)cc2)c(O)c1,AC50,[1],"3.55 µM [rising, single point]"
O=C(O)c1cc(=O)n(Cc2ccccc2)c(=O)[nH]1,AC50,[1],"35.5 µM [falling, partial curve, poor fit]"

# Random excerpt: two entries already listed
smiles,measurement,setting,value
O=C(c1ccccn1)N1CCN(S(=O)(=O)c2ccc3ccccc3c2)CC1,AC50,[1],"31.6 µM [rising, partial curve, poor fit]"
CC(/C=N/n1c(-c2n[nH]c3c2CCC3)n[nH]c1=S)=C\c1ccco1,AC50,[1],"0.1 µM [falling, full curve, poor fit]"
